According to the supplement of paper PMC8612539:
In brackets after ≈: the same amount, converted by molar mass. This continues a long series; more values of the same kind are listed elsewhere.

System: Escherichia coli
Assay: minimum inhibitory concentration (MIC)
Experimental: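 Broth microdilution MIC (Sensititre BOPO7F bovine plate, CLSI methods) of 19 antimicrobials against field isolates of P. multocida, M. haemolytica, H. somni (deep nasopharyngeal swabs) and E. coli, Enterococcus spp. (rectal swabs) from weaned dairy heifers. Incubation 16-24 h at 35 C. MIC is the lowest concentration preventing visible growth. Values with <= or > lie at the tested range limits. Trimethoprim-sulfamethoxazole is given as the trimethoprim component of a 1:19 mixture.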

CNC(C)C1CCC(N)C(OC2C(N)CC(N)C(OC3OCC(C)(O)C(NC)C3O)C2O)O1 (stereo unspecified) [Gentamicin]
Settings	minimum inhibitory concentration [µg/mL]
isolate (source animal id): 1	≤ 1
isolate (source animal id): 2	≤ 1
isolate (source animal id): 3	≤ 1
isolate (source animal id): 4	≤ 1
isolate (source animal id): 5	≤ 1
isolate (source animal id): 6	≤ 1
isolate (source animal id): 7	≤ 1
isolate (source animal id): 17	≤ 1
isolate (source animal id): 18	≤ 1
isolate (source animal id): 19	≤ 1
isolate (source animal id): 20	≤ 1
isolate (source animal id): 21	≤ 1
isolate (source animal id): 22	≤ 1
isolate (source animal id): 23	≤ 1
isolate (source animal id): 24	≤ 1
isolate (source animal id): 25	≤ 1
isolate (source animal id): 26	≤ 1
isolate (source animal id): 27	8 (≈ 16.8 µM)
isolate (source animal id): 28	≤ 1
isolate (source animal id): 29	8 (≈ 16.8 µM)
isolate (source animal id): 30	≤ 1
isolate (source animal id): 31	≤ 1
isolate (source animal id): 32	≤ 1
isolate (source animal id): 33	≤ 1
isolate (source animal id): 34	≤ 1
isolate (source animal id): 35	≤ 1
isolate (source animal id): 36	≤ 1
isolate (source animal id): 37	≤ 1
isolate (source animal id): 38	≤ 1
isolate (source animal id): 39	≤ 1
isolate (source animal id): 40	≤ 1
isolate (source animal id): 41	≤ 1
isolate (source animal id): 42	≤ 1
isolate (source animal id): 43	≤ 1
isolate (source animal id): 44	≤ 1
isolate (source animal id): 45	≤ 1
isolate (source animal id): 46	≤ 1
isolate (source animal id): 47	≤ 1
isolate (source animal id): 48	≤ 1
isolate (source animal id): 49	≤ 1
isolate (source animal id): 50	≤ 1
isolate (source animal id): 51	≤ 1
isolate (source animal id): 52	≤ 1
isolate (source animal id): 53	≤ 1
isolate (source animal id): 54	≤ 1
isolate (source animal id): 55	≤ 1
isolate (source animal id): 56	≤ 1
isolate (source animal id): 57	> 16
isolate (source animal id): 58	≤ 1
isolate (source animal id): 59	≤ 1
isolate (source animal id): 60	≤ 1
isolate (source animal id): 61	≤ 1
isolate (source animal id): 62	≤ 1
isolate (source animal id): 63	≤ 1
isolate (source animal id): 64	≤ 1
isolate (source animal id): 65	≤ 1
isolate (source animal id): 66	2 (≈ 4.19 µM)
isolate (source animal id): 67	≤ 1
isolate (source animal id): 68	≤ 1
isolate (source animal id): 69	≤ 1
isolate (source animal id): 70	≤ 1
isolate (source animal id): 71	2 (≈ 4.19 µM)
isolate (source animal id): 72	≤ 1
isolate (source animal id): 73	≤ 1
isolate (source animal id): 74	≤ 1
isolate (source animal id): 75	≤ 1
isolate (source animal id): 76	≤ 1
isolate (source animal id): 77	≤ 1
isolate (source animal id): 78	≤ 1
isolate (source animal id): 79	≤ 1
isolate (source animal id): 80	≤ 1
isolate (source animal id): 81	≤ 1
isolate (source animal id): 82	≤ 1
isolate (source animal id): 83	≤ 1
isolate (source animal id): 84	≤ 1
isolate (source animal id): 85	≤ 1
isolate (source animal id): 86	≤ 1
isolate (source animal id): 87	≤ 1
isolate (source animal id): 88	≤ 1
isolate (source animal id): 89	≤ 1
isolate (source animal id): 90	≤ 1
isolate (source animal id): 91	≤ 1
isolate (source animal id): 92	≤ 1
isolate (source animal id): 93	≤ 1
isolate (source animal id): 94	2 (≈ 4.19 µM)
isolate (source animal id): 95	2 (≈ 4.19 µM)
isolate (source animal id): 96	≤ 1
isolate (source animal id): 97	≤ 1
isolate (source animal id): 189	≤ 1
isolate (source animal id): 190	≤ 1
isolate (source animal id): 191	≤ 1
isolate (source animal id): 192	≤ 1
isolate (source animal id): 193	≤ 1
isolate (source animal id): 194	≤ 1
isolate (source animal id): 195	≤ 1
isolate (source animal id): 196	≤ 1
isolate (source animal id): 197	≤ 1
isolate (source animal id): 198	≤ 1
isolate (source animal id): 199	≤ 1
isolate (source animal id): 200	≤ 1
isolate (source animal id): 201	≤ 1
isolate (source animal id): 202	≤ 1
isolate (source animal id): 203	≤ 1
isolate (source animal id): 204	≤ 1
isolate (source animal id): 205	≤ 1
isolate (source animal id): 206	≤ 1
isolate (source animal id): 207	≤ 1
isolate (source animal id): 208	≤ 1
isolate (source animal id): 209	≤ 1
isolate (source animal id): 210	≤ 1
isolate (source animal id): 211	≤ 1
isolate (source animal id): 212	≤ 1
isolate (source animal id): 213	2 (≈ 4.19 µM)
isolate (source animal id): 214	≤ 1
isolate (source animal id): 215	≤ 1
isolate (source animal id): 216	≤ 1
isolate (source animal id): 217	≤ 1
isolate (source animal id): 218	≤ 1
isolate (source animal id): 219	≤ 1
isolate (source animal id): 220	≤ 1
isolate (source animal id): 221	≤ 1
isolate (source animal id): 222	≤ 1
isolate (source animal id): 223	2 (≈ 4.19 µM)
isolate (source animal id): 224	≤ 1
isolate (source animal id): 225	≤ 1
isolate (source animal id): 226	≤ 1
isolate (source animal id): 227	≤ 1
isolate (source animal id): 228	≤ 1
isolate (source animal id): 229	≤ 1
isolate (source animal id): 230	≤ 1
isolate (source animal id): 231	≤ 1
isolate (source animal id): 232	≤ 1
isolate (source animal id): 233	≤ 1
isolate (source animal id): 234	≤ 1
isolate (source animal id): 235	≤ 1
isolate (source animal id): 236	≤ 1
isolate (source animal id): 237	≤ 1
isolate (source animal id): 238	≤ 1
isolate (source animal id): 239	≤ 1
isolate (source animal id): 240	≤ 1
isolate (source animal id): 241	≤ 1
isolate (source animal id): 242	2 (≈ 4.19 µM)
isolate (source animal id): 243	2 (≈ 4.19 µM)
isolate (source animal id): 244	≤ 1
isolate (source animal id): 245	≤ 1
isolate (source animal id): 246	≤ 1
isolate (source animal id): 247	≤ 1
isolate (source animal id): 248	≤ 1
isolate (source animal id): 249	≤ 1
isolate (source animal id): 250	≤ 1
isolate (source animal id): 251	≤ 1
isolate (source animal id): 252	≤ 1
isolate (source animal id): 253	≤ 1
isolate (source animal id): 254	≤ 1
isolate (source animal id): 255	≤ 1
isolate (source animal id): 256	≤ 1
isolate (source animal id): 257	≤ 1
isolate (source animal id): 258	≤ 1
isolate (source animal id): 259	≤ 1
isolate (source animal id): 260	≤ 1
isolate (source animal id): 261	≤ 1
isolate (source animal id): 262	≤ 1
isolate (source animal id): 263	≤ 1
isolate (source animal id): 264	≤ 1
isolate (source animal id): 265	≤ 1
isolate (source animal id): 266	≤ 1
isolate (source animal id): 267	≤ 1
isolate (source animal id): 268	≤ 1
isolate (source animal id): 269	2 (≈ 4.19 µM)
isolate (source animal id): 270	≤ 1
isolate (source animal id): 271	≤ 1
isolate (source animal id): 272	≤ 1
isolate (source animal id): 273	≤ 1
isolate (source animal id): 274	≤ 1
isolate (source animal id): 275	≤ 1
isolate (source animal id): 276	≤ 1
isolate (source animal id): 277	≤ 1
isolate (source animal id): 278	≤ 1
isolate (source animal id): 279	≤ 1
isolate (source animal id): 280	≤ 1
isolate (source animal id): 281	2 (≈ 4.19 µM)
isolate (source animal id): 282	≤ 1
isolate (source animal id): 283	≤ 1
isolate (source animal id): 284	≤ 1
isolate (source animal id): 285	≤ 1
isolate (source animal id): 286	≤ 1
isolate (source animal id): 287	4 (≈ 8.38 µM)
isolate (source animal id): 288	≤ 1
isolate (source animal id): 289	≤ 1
isolate (source animal id): 290	≤ 1
isolate (source animal id): 291	8 (≈ 16.8 µM)
isolate (source animal id): 292	≤ 1
isolate (source animal id): 293	≤ 1
isolate (source animal id): 294	≤ 1
isolate (source animal id): 295	8 (≈ 16.8 µM)
isolate (source animal id): 296	≤ 1
isolate (source animal id): 297	≤ 1
isolate (source animal id): 298	≤ 1
isolate (source animal id): 299	≤ 1
isolate (source animal id): 300	≤ 1
isolate (source animal id): 301	≤ 1
isolate (source animal id): 302	≤ 1
isolate (source animal id): 303	≤ 1
isolate (source animal id): 304	≤ 1
isolate (source animal id): 305	≤ 1
isolate (source animal id): 306	≤ 1
isolate (source animal id): 307	≤ 1
isolate (source animal id): 308	≤ 1
isolate (source animal id): 309	≤ 1
isolate (source animal id): 310	≤ 1
isolate (source animal id): 311	≤ 1
isolate (source animal id): 312	≤ 1
isolate (source animal id): 313	≤ 1
isolate (source animal id): 314	≤ 1
isolate (source animal id): 315	≤ 1
isolate (source animal id): 316	≤ 1
isolate (source animal id): 317	2 (≈ 4.19 µM)
isolate (source animal id): 318	≤ 1
isolate (source animal id): 319	≤ 1
isolate (source animal id): 320	≤ 1
isolate (source animal id): 321	≤ 1
isolate (source animal id): 322	≤ 1
isolate (source animal id): 323	≤ 1
isolate (source animal id): 324	≤ 1
isolate (source animal id): 325	≤ 1
isolate (source animal id): 326	≤ 1
isolate (source animal id): 327	≤ 1
isolate (source animal id): 328	≤ 1
isolate (source animal id): 329	≤ 1
isolate (source animal id): 330	≤ 1
isolate (source animal id): 331	≤ 1
isolate (source animal id): 332	≤ 1
isolate (source animal id): 333	≤ 1
isolate (source animal id): 334	≤ 1
isolate (source animal id): 335	≤ 1
isolate (source animal id): 336	≤ 1
isolate (source animal id): 337	≤ 1
isolate (source animal id): 338	≤ 1
isolate (source animal id): 339	≤ 1
isolate (source animal id): 340	2 (≈ 4.19 µM)
isolate (source animal id): 341	≤ 1
